According to PubChem BioAssay AID1671190 (National Center for Advancing Translational Sciences (NCATS), 2021):
Screen size: about 580,000 compounds; about 6,100 (1.1%) were called active. Inconclusive means that the source gave no clear call. Such entries were picked first, then a sample of the others. Calls come from the whole dose curve; as a rule, active = well fitted inhibition curve with a large enough effect; inconclusive = small, poorly fitted or top-dose-only effect, or another doubt; inactive = no such curve, though single readings can be large or run the other way. Potencies beside an inconclusive call are fits to weak or partial responses and may not hold up.

By UniProt entry, the sequences of proteins in these tests, tags left out. Where a name states a change or a piece, a line headed by the entry shows the natural chain unless it says otherwise.
UniProt P18054: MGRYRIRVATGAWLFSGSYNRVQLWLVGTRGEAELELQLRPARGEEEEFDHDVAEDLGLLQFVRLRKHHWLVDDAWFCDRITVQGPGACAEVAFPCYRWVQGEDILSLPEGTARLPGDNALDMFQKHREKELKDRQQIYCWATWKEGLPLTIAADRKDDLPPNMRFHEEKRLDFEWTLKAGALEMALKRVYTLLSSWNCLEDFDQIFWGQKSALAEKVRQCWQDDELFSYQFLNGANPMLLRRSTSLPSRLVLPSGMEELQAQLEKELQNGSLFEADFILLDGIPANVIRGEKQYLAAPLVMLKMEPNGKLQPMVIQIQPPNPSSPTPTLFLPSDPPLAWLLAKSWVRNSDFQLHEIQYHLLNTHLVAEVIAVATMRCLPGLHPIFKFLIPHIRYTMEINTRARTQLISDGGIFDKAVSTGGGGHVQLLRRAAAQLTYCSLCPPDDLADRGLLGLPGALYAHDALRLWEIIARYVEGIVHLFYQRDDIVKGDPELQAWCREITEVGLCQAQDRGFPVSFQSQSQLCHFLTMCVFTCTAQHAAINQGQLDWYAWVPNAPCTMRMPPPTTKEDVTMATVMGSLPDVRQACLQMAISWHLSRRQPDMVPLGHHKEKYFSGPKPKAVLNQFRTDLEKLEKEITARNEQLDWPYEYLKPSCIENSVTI

Biological target: Polyunsaturated fatty acid lipoxygenase ALOX12 (Homo sapiens) (UniProt P18054)
Assay: Primary qHTS assay for inhibitors of human arachidonate 12S-lipoxygenase (ALOX12): Round 2
Settings: purified 12hLO, xylenol orange hydroperoxide absorbance; activity change, negative = inhibition: at 108 µM (top of the series) unless noted
Outline: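 Purified human 12hLO at 150 nM in 25 mM Hepes, 0.01% Triton X-100, pH 7.0, preincubated 15 min at room temperature with compound. Reaction started with 40 uM arachidonic acid, 30 min at room temperature. Hydroperoxide measured by Fe-xylenol orange, 573/405 nm absorbance ratio.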
% is set by controls: 0 for no effect and ±100 for the full control effect; potency is the fitted concentration of half-maximal effect.

SMILES | activity change, negative = inhibition | Potency
COc1ccccc1OCC(=O)N1CCC(c2nc3ccccc3o2)CC1 | inactive: -6.48% | –
CC(C)(C)C(=O)N1CCC(O)(CS(=O)(=O)Cc2ccccc2Cl)CC1 | inactive: 0% | –
CCC(C)(C)C1CCC(=NNS(=O)(=O)c2ccc(C)c([N+](=O)[O-])c2)CC1 (stereo unspecified) | inactive: -26.1% | –
O=S(=O)(Nc1ccccc1N1CCCC1)c1ccccc1C(F)(F)F | inactive: 3.41% | –
Cc1n[nH]c(C)c1S(=O)(=O)N1CCC(=O)CC1 | – | inconclusive: 5.62 µM [inhibitor, full curve, poor fit]
CC(C)(/C=N/O)/[N+]([O-])=C/c1ccc(F)cc1 | – | inconclusive: 11.2 µM [inhibitor, partial curve, poor fit]
COC[C@H]1CCCN1C(=O)[C@@H](C)C1CC[C@@]2(C)CC[C@H](NC(=O)Cc3ccccc3)[C@@H](C)[C@@H]2[C@H]1O (stereo partly specified) | inactive: 54.7% | –
CCCn1c(=S)[nH]c2ccc(C(F)(F)F)cc21 | – | inconclusive: 44.7 µM [inhibitor, partial curve]
CS(=O)(=O)N(CC(=O)NC1CCCC1)C1CCCCC1 | – | inconclusive: 126 µM [inhibitor, partial curve, poor fit]
O=C(NCC(O)COc1ccc(C(F)(F)F)cc1)C1CCC1 (stereo unspecified) | inactive: 3.19% | –
CC1(Cc2ccccc2OC(F)(F)F)C(=O)Nc2c(Cl)ccc(Cl)c21 (stereo unspecified) | – | inconclusive: 100 µM [inhibitor, single point]
CCOC(=O)c1ccc(NC(=O)CCCn2c(=O)c3cccn3c3cccnc32)cc1 | – | inconclusive: 126 µM [inhibitor, partial curve, poor fit]
CC(NC(=O)c1cc2n(n1)CC(c1ccc(Cl)cc1)OC2)c1ccc(F)cc1 (stereo unspecified) | inactive: -2.41% | –
Cc1ccc(NS(=O)(=O)c2ccc(Cl)c(NC(=S)NC(=O)C3CCCCC3)c2)cc1Cl | – | active: 12.6 µM
NC(=O)c1cccc(CN2CCCC23Cc2ccccc2N(C(=O)c2ccc(Cl)cc2)C3)c1 (stereo unspecified) | – | inconclusive: 10 µM [inhibitor, full curve]
Cc1nc2ccc(Cl)cc2cc1C(=O)NCCOc1ccc(F)cc1 | inactive: -7.52% | –
Clc1ccc(-n2ncc3c(NCCCn4ccnc4)ncnc32)cc1 | – | inconclusive: 50.1 µM [inhibitor, partial curve, poor fit]
C=CCN(CC=C)C(=O)c1ccc2nc(Cc3ccc(OC)c(OC)c3)oc2c1 | inactive: 8.94% | –
CS(=O)(=O)N1CCN(c2ccccc2NC(=O)Cc2ccccc2)CC1 | inactive: 0% | –
CN(C)c1ccc(NC(=O)c2cc(C(C)(C)C)cc(C(C)(C)C)c2)cc1 | – | inconclusive: 2.82 µM [inhibitor, full curve]
CCCCCCn1nc(C(=O)Nc2nc(-c3ccc(NC(C)=O)cc3)cs2)c2ccccc2c1=O | inactive: -10.2% | –
C=C(C)COc1ccc(-c2[nH]ncc2Oc2ccc(OC)cc2)c(O)c1 | – | inconclusive: 44.7 µM [inhibitor, partial curve, poor fit]

One compound at a time, from the list above:
CCCn1c(=S)[nH]c2ccc(C(F)(F)F)cc21 is listed with Potency: inconclusive: 44.7 µM [inhibitor, partial curve]
C=C(C)COc1ccc(-c2[nH]ncc2Oc2ccc(OC)cc2)c(O)c1 is listed with Potency: inconclusive: 44.7 µM [inhibitor, partial curve, poor fit]
CC(C)(/C=N/O)/[N+]([O-])=C/c1ccc(F)cc1 is listed with Potency: inconclusive: 11.2 µM [inhibitor, partial curve, poor fit]
COc1ccccc1OCC(=O)N1CCC(c2nc3ccccc3o2)CC1 is listed with activity change, negative = inhibition: inactive: -6.48%

Continuation.

SMILES | activity change, negative = inhibition | Potency
CCOC(=O)C1=C(C)NC(=S)NC1c1ccc(-c2cccc(Cl)c2C)o1 (stereo unspecified) | – | inconclusive: 35.5 µM [inhibitor, partial curve, poor fit]
O=C1c2ccccc2NC(c2cnn(-c3ccccc3)n2)N1c1ccccc1 (stereo unspecified) | inactive: 1.13% | –
CCCS(=O)(=O)N1CCC(C(=O)NCCCOC)CC1 | inactive: 0% | –
CC1(C)Cc2c(C#N)c(N3CCN(C(=O)c4ccccc4)CC3)nc(-c3ccco3)c2CS1 | inactive: -37% | –
O=C(O)c1cc(-c2ccccc2)nc2c(Cl)cccc12 | – | inconclusive: 50.1 µM [inhibitor, partial curve, poor fit]
COc1ccc(CC2=NN3C([C@@H](CCc4ccccc4)[C@@H](C)O)=NC(C)C3C(=O)N2)cc1OC (stereo partly specified) | – | inconclusive: 27.3 µM [inhibitor, partial curve, poor fit]
O=C(Nc1ccccc1I)C1CCCC1 | – | inconclusive: 44.7 µM [inhibitor, partial curve, poor fit]
O=C(Nc1nc(-c2ccc3ccccc3c2)cs1)c1ccc(N2C(=O)CCC2=O)cc1 | – | inconclusive: 89.1 µM [inhibitor, single point]
CC1=C(C(=O)OCc2ccccc2)C(c2cccc([N+](=O)[O-])c2)NC(=O)N1 (stereo unspecified) | – | inconclusive: 112 µM [inhibitor, single point]
CCOCCCNC(=O)c1cc2c(s1)-c1ccccc1SC2 | – | inconclusive: 20 µM [inhibitor, partial curve, poor fit]
NS(=O)(=O)Cc1ccc(CNC(=O)COc2ccccc2)cc1 | inactive: 45.7% | –
CCCOc1ccc(C(=O)CCC(=O)OC(C)C(=O)Nc2ccc(NC(C)=O)cc2)cc1 (stereo unspecified) | – | inconclusive: 50.1 µM [inhibitor, single point]
CN1CCN(S(=O)(=O)c2ccc(Cl)c3ccccc23)CC1 | – | inconclusive: 112 µM [inhibitor, single point]
Cc1ncc(-c2ccc(S(=O)(=O)Nc3ccc(F)c(F)c3)cc2)o1 | inactive: -25.2% | –
O=c1cc(O)nc(SCc2ccccc2)n1-c1ccc(Cl)cc1 | – | active: 44.7 µM
Cc1ccc(C)c(Nc2nc(-c3ccc(-c4ccccc4)cc3)cs2)c1 | – | inconclusive: 35.5 µM [inhibitor, partial curve, poor fit]
CCCC1=C(C(=O)OCC)C(c2cccc3ccccc23)C(C#N)=C(N)O1 (stereo unspecified) | – | inconclusive: 39.8 µM [inhibitor, partial curve, poor fit]
O=C(O)/C(=C\c1ccccc1OC(F)F)Sc1nnc(-c2ccc(F)cc2)o1 | inactive: 19.1% | –
CC(=O)N1CCC(N2CCC3(CC2)CC(C(=O)N2CCOCC2)N(C)C3)CC1 (stereo unspecified) | inactive: 138% | –
CC(C)c1ccc(/C=C2\NC(=O)NC2=O)cc1 | – | inconclusive: 44.7 µM [inhibitor, partial curve, poor fit]
O=C(O)CC1(CC(=O)Nc2ccc3ccccc3n2)CCCCC1 | – | inconclusive: 100 µM [inhibitor, partial curve, poor fit]
COC(=O)c1ccccc1NC(=O)c1ccc(-c2nc(CSc3ccc(C)cc3)c(C)o2)cc1 | – | inconclusive: 100 µM [inhibitor, single point]

SMILES | activity change, negative = inhibition | Potency
O=S(=O)(NCc1cccnc1)c1cccc2cccnc12 | – | inconclusive: 112 µM [inhibitor, partial curve, poor fit]
O=c1[nH]c2ccc(-c3csc(Nc4ccccc4F)n3)cc2o1 | – | inconclusive: 10 µM [inhibitor, partial curve, poor fit]
COc1cccc(OC)c1C(=O)N1CCN(Cc2ccc3c(c2)OCO3)CC1 | – | inconclusive: 1.26 µM [inhibitor, full curve, poor fit]
CNc1ccnc(N2CCC(N3CCCC(C(=O)N4CCCC4)C3)CC2)n1 (stereo unspecified) | – | inconclusive: 3.98 µM [inhibitor, partial curve, poor fit]
CC(=O)NC1(C)CCN(Cc2cccc(Nc3cccc(Cl)c3)c2)C1 (stereo unspecified) | – | inconclusive: 50.1 µM [inhibitor, partial curve]
CC1(C(=O)Nc2cccc(NS(C)(=O)=O)c2)Cc2c(-c3cccc(C(N)=O)c3)ccnc2O1 (stereo unspecified) | – | inconclusive: 1.58 µM [inhibitor, full curve, poor fit]
Cc1ccc(C(=O)O)cc1-c1ccc(/C=C(/C#N)c2nc3ccccc3[nH]2)o1 | – | inconclusive: 56.2 µM [inhibitor, partial curve, poor fit]
Cc1cccc(C(=O)Nc2ccc(NC(=S)NC(=O)c3ccc(Cl)cc3)cc2)c1 | – | inconclusive: 39.8 µM [inhibitor, partial curve, poor fit]
O=C(NCc1ccc(F)cc1)N1CCc2ccccc2C1 | inactive: -0.624% | –
CS(=O)(=O)Nc1ccc([N+](=O)[O-])cc1Oc1ccccc1 | inconclusive: -62.1% [inhibitor] [at 57.4 µM] | –
COc1cc(CC(=O)Nc2ncc(C)s2)cc(OC)c1OC | – | inconclusive: 70.8 µM [inhibitor, partial curve, poor fit]
CCOC(=O)C1=C(C)N(c2ccc(OC)cc2)C(=O)/C1=C\c1ccc(O)c(OCC)c1 | – | inconclusive: 31.6 µM [inhibitor, full curve, poor fit]
CN1C(N)=NC(=O)/C1=C/c1ccc(F)cc1 | – | inconclusive: 31.6 µM [inhibitor, full curve, poor fit]
CCOC(=O)[C@]12CCC=C1N(CCC1=CCCCC1)C(=O)[C@H](CC(=O)NCC1CCCCC1)C2 | – | inconclusive: 35.5 µM [inhibitor, single point]
O=C(CNCC1CCCCC1)Nc1ccccc1N1CCCCC1 | – | inconclusive: 0.199 µM [inhibitor, full curve, poor fit]
CCOc1ccc(N(C)S(=O)(=O)c2ccc(C)c(C(=O)NCCc3ccc(OC)cc3)c2)cc1 | inactive: 1.79% | –
CN(C)CCNC(=O)C(C)(C)Oc1nn(Cc2cccc(Cl)c2)c2ccccc12 | – | inconclusive: 50.1 µM [inhibitor, full curve]
Cc1ccc(C(=O)NCc2ccco2)cc1S(=O)(=O)N1CCCCC1 | – | inconclusive: 2.51 µM [inhibitor, full curve, poor fit]
CC(=O)Nc1cccc(C(=O)NC2CCCC(C)C2C)c1 (stereo unspecified) | – | inconclusive: 79.4 µM [inhibitor, single point]
Cc1cccc(C)c1OCC(=O)NC(Cc1c[nH]c2ccccc12)C(=O)O (stereo unspecified) | – | inconclusive: 56.2 µM [inhibitor, partial curve, poor fit]
COc1ccc(F)cc1-c1cc(NC(C)=O)c2ncc(-c3cccc(C(F)(F)F)c3)n2c1 | – | inconclusive: 44.7 µM [inhibitor, partial curve, poor fit]
CCOC(=O)c1c(NC(=O)c2ccco2)sc2c1CCCC2 | inactive: 0% | –
